# From the supplement of paper PMC8728848
# This is one part of the list.
# B1: Agalectin (Anopheles gambiae) (protein)
# chain: MSNRPFTAKFPRYPENGDEVFIRGKLKDDAKSFSVNFCLPRPAQVAEHQTPPYIALHFKTIYDERDDTSRVVLNWKNLQWQQEEVLDNYWHVDRSQTFRVVFRLHEDCIKVFVNSVDHPPDYQFPVQLPLDQIESIELWDDVEHVEEISFRYDNGNSY
# Legend:
# Assay in all cases: glycan array binding signal (z-score within array); higher = stronger binding
# Conditions in all cases: glycan notation: IUPAC condensed, linker removed
# [1] = molecular target: Gal(a1-3)Gal(b1-4)GlcNAc(b1-2)Man
# Outline: (§1)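 Negative Z-scores can be read as non-binding. The Z-score is calculated within each array and then averaged across arrays of one protein sequence at different concentrations or buffers and across linkers. Arrays, 3228 in all, were curated from the Consortium for Functional Glycomics database and kept only where the protein sequence was available.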
# [2] = molecular target: Gal(a1-3)Gal(b1-4)GlcNAc(b1-2)Man(a1-3)[Gal(a1-3)Gal(b1-4)GlcNAc(b1-2)Man(a1-6)]Man(b1-4)GlcNAc(b1-4)GlcNAc
# Outline: as §1
# [3] = molecular target: Gal(a1-3)Gal(b1-4)GlcNAc(b1-3)GalNAc
# Outline: as §1
# [4] = molecular target: Gal(a1-3)Gal(b1-4)GlcNAc(b1-6)GalNAc
# Outline: as §1
# [5] = molecular target: Gal(a1-3)Gal(b1-4)[Fuc(a1-3)]GlcNAc
# Outline: as §1
# [6] = molecular target: Gal(a1-3)Gal(b1-4)[Fuc(a1-3)]GlcNAc(b1-2)Man(a1-3)[Gal(a1-3)Gal(b1-4)[Fuc(a1-3)]GlcNAc(b1-2)Man(a1-6)]Man(b1-4)GlcNAc(b1-4)GlcNAc
# Outline: as §1
# Gal(a1-3)GalNAc = molecular target: Gal(a1-3)GalNAc
# Outline: as §1
# [7] = molecular target: Gal(a1-3)[Gal(a1-4)]Gal(b1-4)GlcNAc
# Outline: as §1
# [8] = molecular target: Gal(a1-4)Gal(b1-3)GlcNAc(b1-2)Man(a1-3)[Gal(a1-4)Gal(b1-3)GlcNAc(b1-2)Man(a1-6)]Man(b1-4)GlcNAc(b1-4)GlcNAc
# Outline: as §1
# Gal(a1-4)Gal(b1-4)Glc = molecular target: Gal(a1-4)Gal(b1-4)Glc
# Outline: as §1
# Gal(a1-4)Gal(b1-4)GlcNAc = molecular target: Gal(a1-4)Gal(b1-4)GlcNAc
# Outline: as §1
# [9] = molecular target: Gal(a1-4)Gal(b1-4)GlcNAc(b1-2)Man(a1-3)[Gal(a1-4)Gal(b1-4)GlcNAc(b1-2)Man(a1-6)]Man(b1-4)GlcNAc(b1-4)GlcNAc
# Outline: as §1
# [10] = molecular target: Gal(a1-4)Gal(b1-4)GlcNAc(b1-3)Gal(b1-4)Glc
# Outline: as §1
# Gal(a1-4)GlcNAc = molecular target: Gal(a1-4)GlcNAc
# Outline: as §1
# Gal(a1-6)Glc = molecular target: Gal(a1-6)Glc
# Outline: as §1
# Gal(b1-2)Gal = molecular target: Gal(b1-2)Gal
# Outline: as §1
# Gal(b1-3)Gal = molecular target: Gal(b1-3)Gal
# Outline: as §1
# Gal(b1-3)Gal(b1-4)GlcNAc = molecular target: Gal(b1-3)Gal(b1-4)GlcNAc
# Outline: as §1
# Gal(b1-3)GalNAc = molecular target: Gal(b1-3)GalNAc
# Outline: as §1
# [11] = molecular target: Gal(b1-3)GalNAc(a1-3)[Fuc(a1-2)]Gal(b1-4)Glc
# Outline: as §1
# [12] = molecular target: Gal(b1-3)GalNAc(a1-3)[Fuc(a1-2)]Gal(b1-4)GlcNAc
# Outline: as §1
# Gal(b1-3)GalNAc(b1-3)Gal = molecular target: Gal(b1-3)GalNAc(b1-3)Gal
# Outline: as §1
# [13] = molecular target: Gal(b1-3)GalNAc(b1-3)Gal(a1-4)Gal(b1-4)Glc
# Outline: as §1
# [14] = molecular target: Gal(b1-3)GalNAc(b1-4)Gal(b1-4)Glc
# Outline: as §1
# [15] = molecular target: Gal(b1-3)GalNAc(b1-4)[Neu5Ac(a2-3)]Gal(b1-4)Glc
# Outline: as §1
# Gal(b1-3)GlcNAc = molecular target: Gal(b1-3)GlcNAc
# Outline: as §1
# [16] = molecular target: Gal(b1-3)GlcNAc(a1-3)Gal(b1-4)GlcNAc
# Outline: as §1
# [17] = molecular target: Gal(b1-3)GlcNAc(a1-6)Gal(b1-4)GlcNAc
# Outline: as §1
# Gal(b1-3)GlcNAc(b1-2)Man = molecular target: Gal(b1-3)GlcNAc(b1-2)Man
# Outline: as §1
# [18] = molecular target: Gal(b1-3)GlcNAc(b1-2)Man(a1-3)[Gal(b1-3)GlcNAc(b1-2)Man(a1-6)]Man(b1-4)GlcNAc(b1-4)GlcNAc
# Outline: as §1
# [19] = molecular target: Gal(b1-3)GlcNAc(b1-2)Man(a1-3)[Gal(b1-3)GlcNAc(b1-2)Man(a1-6)]Man(b1-4)GlcNAc(b1-4)[Fuc(a1-6)]GlcNAc
# Outline: as §1
# [20] = molecular target: Gal(b1-3)GlcNAc(b1-2)Man(a1-3)[GlcNAc(b1-4)][Gal(b1-3)GlcNAc(b1-2)Man(a1-6)]Man(b1-4)GlcNAc(b1-4)GlcNAc
# Outline: as §1
# [21] = molecular target: Gal(b1-3)GlcNAc(b1-2)[Gal(b1-3)GlcNAc(b1-6)]Man(a1-6)[Gal(b1-3)GlcNAc(b1-2)Man(a1-3)]Man(b1-4)GlcNAc(b1-4)GlcNAc
# Outline: as §1
# [22] = molecular target: Gal(b1-3)GlcNAc(b1-3)Gal(b1-3)GlcNAc
# Outline: as §1
# [23] = molecular target: Gal(b1-3)GlcNAc(b1-3)Gal(b1-4)Glc
# Outline: as §1
# [24] = molecular target: Gal(b1-3)GlcNAc(b1-3)Gal(b1-4)GlcNAc
# Outline: as §1
# [25] = molecular target: Gal(b1-3)GlcNAc(b1-3)Gal(b1-4)GlcNAc(b1-2)Man(a1-3)[Gal(b1-3)GlcNAc(b1-3)Gal(b1-4)GlcNAc(b1-2)Man(a1-6)]Man(b1-4)GlcNAc(b1-4)GlcNAc
# Outline: as §1
# [26] = molecular target: Gal(b1-3)GlcNAc(b1-3)Gal(b1-4)GlcNAc(b1-2)[Gal(b1-3)GlcNAc(b1-3)Gal(b1-4)GlcNAc(b1-6)]Man(a1-6)[Gal(b1-3)GlcNAc(b1-3)Gal(b1-4)GlcNAc(b1-2)Man(a1-3)]Man(b1-4)GlcNAc(b1-4)[Fuc(a1-6)]GlcNAc
# Outline: as §1
# [27] = molecular target: Gal(b1-3)GlcNAc(b1-3)Gal(b1-4)GlcNAc(b1-3)Gal(b1-4)GlcNAc(b1-2)[Gal(b1-3)GlcNAc(b1-3)Gal(b1-4)GlcNAc(b1-3)Gal(b1-4)GlcNAc(b1-6)]Man(a1-6)[Gal(b1-3)GlcNAc(b1-3)Gal(b1-4)GlcNAc(b1-3)Gal(b1-4)GlcNAc(b1-2)Man(a1-3)]Man(b1-4)GlcNAc(b1-4)[Fuc(a1-6)]GlcNAc
# Outline: as §1
# [28] = molecular target: Gal(b1-3)GlcNAc(b1-3)Gal(b1-4)GlcNAc(b1-6)[Gal(b1-3)GlcNAc(b1-3)]Gal(b1-4)Glc
# Outline: as §1
# [29] = molecular target: Gal(b1-3)GlcNAc(b1-3)Gal(b1-4)[Fuc(a1-3)]GlcNAc
# Outline: as §1
# [30] = molecular target: Gal(b1-3)GlcNAc(b1-3)Gal(b1-4)[Fuc(a1-3)]GlcNAc(b1-6)[Gal(b1-3)GlcNAc(b1-3)]Gal(b1-4)Glc
# Outline: as §1
# [31] = molecular target: Gal(b1-3)GlcNAc(b1-3)GalNAc
# Outline: as §1
# [32] = molecular target: Gal(b1-3)GlcNAc(b1-6)Gal(b1-4)GlcNAc
# Outline: as §1
# [33] = molecular target: Gal(b1-3)GlcNAc(b1-6)GalNAc
# Outline: as §1
binder,measurement,setting,value
B1,glycan array binding signal (z-score),[1],-1.22
same,glycan array binding signal (z-score),[2],-0.089
same,glycan array binding signal (z-score),[3],0.984
same,glycan array binding signal (z-score),[4],-0.29
same,glycan array binding signal (z-score),[5],-0.066
same,glycan array binding signal (z-score),[6],1.57
same,glycan array binding signal (z-score),Gal(a1-3)GalNAc,-0.055
same,glycan array binding signal (z-score),[7],0.67
same,glycan array binding signal (z-score),[8],2.28
same,glycan array binding signal (z-score),Gal(a1-4)Gal(b1-4)Glc,1.32
same,glycan array binding signal (z-score),Gal(a1-4)Gal(b1-4)GlcNAc,0.962
same,glycan array binding signal (z-score),[9],1.25
same,glycan array binding signal (z-score),[10],-0.266
same,glycan array binding signal (z-score),Gal(a1-4)GlcNAc,-1
same,glycan array binding signal (z-score),Gal(a1-6)Glc,-1.62
same,glycan array binding signal (z-score),Gal(b1-2)Gal,-0.857
same,glycan array binding signal (z-score),Gal(b1-3)Gal,-0.407
same,glycan array binding signal (z-score),Gal(b1-3)Gal(b1-4)GlcNAc,-0.246
same,glycan array binding signal (z-score),Gal(b1-3)GalNAc,-0.47
same,glycan array binding signal (z-score),[11],-0.559
same,glycan array binding signal (z-score),[12],-0.342
same,glycan array binding signal (z-score),Gal(b1-3)GalNAc(b1-3)Gal,-0.485
same,glycan array binding signal (z-score),[13],0.19
same,glycan array binding signal (z-score),[14],0.548
same,glycan array binding signal (z-score),[15],-0.365
same,glycan array binding signal (z-score),Gal(b1-3)GlcNAc,-0.601
same,glycan array binding signal (z-score),[16],0.161
same,glycan array binding signal (z-score),[17],0.131
same,glycan array binding signal (z-score),Gal(b1-3)GlcNAc(b1-2)Man,0.195
same,glycan array binding signal (z-score),[18],1.66
same,glycan array binding signal (z-score),[19],1.18
same,glycan array binding signal (z-score),[20],0.353
same,glycan array binding signal (z-score),[21],0.139
same,glycan array binding signal (z-score),[22],0.735
same,glycan array binding signal (z-score),[23],-0.539
same,glycan array binding signal (z-score),[24],-0.854
same,glycan array binding signal (z-score),[25],-1.04
same,glycan array binding signal (z-score),[26],3.14
same,glycan array binding signal (z-score),[27],1.51
same,glycan array binding signal (z-score),[28],-0.383
same,glycan array binding signal (z-score),[29],1.52
same,glycan array binding signal (z-score),[30],-0.874
same,glycan array binding signal (z-score),[31],-0.394
same,glycan array binding signal (z-score),[32],0.088
same,glycan array binding signal (z-score),[33],-0.037

# At a glance, part of the list above:
binder,measurement,setting,value
B1,glycan array binding signal (z-score),[24],-0.854
same,glycan array binding signal (z-score),[25],-1.04
same,glycan array binding signal (z-score),[26],3.14
